Results deposited as PubChem BioAssay AID504808 (Drosophila RNAi Screening Center, 2011)

Test: 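Chromatin factors that keep E2F targets switched off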 (primary screen)
Cell system: Drosophila S2 cells
Reagents: long dsRNA against Drosophila genes
Measured: 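Firefly luciferase driven by E2F sites, normalised to Renilla luciferase on the same minimal promoter, measured by plate reader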
Reading the numbers: E2F firefly: higher = more E2F reporter activity; Renilla normaliser: higher = more normaliser reporter signal
Call rule: 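a knock-down counted as active when the firefly/Renilla E2F signal rose above 50%, a threshold chosen arbitrarily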
The deposit covers about 21,000 reagents; shown is a random part of those that have a named target and a result. Over the whole deposit, 18 (0.084%) got an active call. 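Raw counts without plate normalisation, one of two replicates; the ratio scores behind the calls were not deposited.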 Entries without a mark were called inactive. Reagents against one gene are numbered here. Not stated in the record: the amount of reagent, the time to read-out.

no.	Target gene	reagent no.	E2F firefly, rep 1	Renilla normaliser, rep 1
1	Klp31E (Kinesin-like protein at 31E)	1	86269	3807
2	CG3368	1	1776	856
3	mRpL15 (mitochondrial ribosomal protein L15)	1	70191	4214
4	Vm32E (Vitelline membrane 32E)	1	1.82e5	4824
5	spdo (sanpodo)	1	81064	2535
6	tw (twisted)	1	1899	832
7	CG4593	1	1.11e5	6028
8	Gmppb (GDP-mannose pyrophosphorylase B)	1	82321	3249
9	CG34263	1	1.32e5	4022
10	Plp (Pericentrin-like protein)	1	1.79e5	9402
11	Plp (Pericentrin-like protein)	2	1.58e5	7960
12	Plp (Pericentrin-like protein)	3	72672	3901
13	Trf5 (TBP-related factor 5)	1	1.73e5	5824
14	Phax (Phosphorylated adaptor for RNA export)	1	1.57e5	4638
15	tra (transformer)	1	1.66e5	8955
16	Pop5 (POP5 ribonuclease P/MRP subunit)	1	1.54e5	8248
17	CG32379	1	1.00e5	4071
18	Osi13 (Osiris 13)	1	1.30e5	5985
19	CG11357	1	88440	3639
20	nanos	1	1.40e5	6691
21	CG2794	1	1.81e5	5949
22	CG11384	1	54450	3553
23	CG4955	1	1.57e5	5784
24	pigs (pickled eggs)	1	77603	2213
25	pigs (pickled eggs)	2	63927	4742
26	pigs (pickled eggs)	3	64721	5058
27	CG17560	1	1.21e5	5826

Sorted by “Renilla normaliser, rep 1” (highest first): some entries from above
Target gene	reagent no.	E2F firefly, rep 1	Renilla normaliser, rep 1
Plp (Pericentrin-like protein)	1	1.79e5	9402
CG4593	1	1.11e5	6028
Vm32E (Vitelline membrane 32E)	1	1.82e5	4824
mRpL15 (mitochondrial ribosomal protein L15)	1	70191	4214
CG34263	1	1.32e5	4022
Klp31E (Kinesin-like protein at 31E)	1	86269	3807
Gmppb (GDP-mannose pyrophosphorylase B)	1	82321	3249
spdo (sanpodo)	1	81064	2535
CG3368	1	1776	856
tw (twisted)	1	1899	832

The results go on:
no.	Target gene	reagent no.	E2F firefly, rep 1	Renilla normaliser, rep 1
28	Obp73a (Odorant-binding protein 73a)	1	1.53e5	7771
29	Tbp (TATA binding protein)	1	83056	3592
30	rho-4 (rhomboid-4)	1	7591	848
31	rho-4 (rhomboid-4)	2	1.29e5	6068
32	Ack (Activated Cdc42 kinase)	1	95542	3964
33	Spn55B (Serpin 55B)	1	1.50e5	4922
34	lectin-29Ca	1	1.40e5	4944
35	Nep7 (Neprilysin 7)	1	1.23e5	6536
36	Twdlbeta (Tweedlebeta)	1	91457	3753
37	Lac (Lachesin)	1	3282	200
38	Prp4k (Pre-mRNA processing factor 4 kinase)	1	69632	3546
39	GlcAT-I (Glucuronyltransferase I)	1	81302	2546
40	CG12057	1	1.06e5	4885
41	CG10984	1	74990	3191
42	tho2	1	86265	3398
43	Pino (Pinocchio)	1	1.41e5	5128
44	Pino (Pinocchio)	2	83519	4286
45	CG1637	1	82219	2449
46	CG1637	2	8204	708
47	CG1637	3	1.29e5	5896
48	CG34278	1	89307	2757
49	Cyp6a9 (Cytochrome P450 6a9)	1	1.15e5	4619
50	rho-5 (rhomboid-5)	1	1.58e5	4918
51	SamDC (S-adenosylmethionine decarboxylase)	1	79813	3943
52	Pkc98E (Protein C kinase 98E)	1	2002	1024
53	CG15818	1	94096	3635
54	CG14011	1	1.38e5	5092
55	Vha16-3 (Vacuolar H[+] ATPase 16kD subunit 3)	1	1.26e5	6885
56	RhoGAP19D (Rho GTPase activating protein at 19D)	1	1.58e5	5750
57	RhoGAP19D (Rho GTPase activating protein at 19D)	2	1.15e5	6772
